{
  "source": "PubChem BioAssay AID1347075",
  "about": "(National Center for Advancing Translational Sciences (NCATS), 2019)",
  "note": "Out of some 400,000 compounds screened, about 5,500 (1.4%) were called active. The shares of active, inactive and inconclusive entries below differ from those in the screen. Calls come from the whole dose curve; as a rule, active = well fitted cell-killing curve with a large enough effect; inconclusive = small, poorly fitted or top-dose-only effect, or effect the other way; inactive = flat fitted curve, though single readings scatter. A potency beside an inconclusive call is a rough fit, not a confirmed value. Potency is the fitted concentration of half-maximal effect.",
  "data": [
    {"test": "qHTS assay for MDR1-selective chemotherapeutics: Primary screen using the parental adenocarcinoma cell KB-3-1; note: nearly all actives have a fitted effect of over 60% in size", "conditions": "KB-3-1 viability, CellTiter-Glo ATP luminescence, 72 h; series mostly up to 46.1 µM", "method_in_brief": "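Here the drug-naive KB-3-1 line serves as comparator for MDR sub-line selectivity; cells received compound titrations, 72 h at 37 °C, then CellTiter-Glo readout.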", "values": [
      {"smiles": "COC(=O)C1=C[C@@H](C(=O)OC)[C@@H]2C3=C(C(=O)[C@]2(CC(C)C)NC(=O)c2ccccc2)[C@H](C)n2c(=O)n(-c4ccccc4)c(=O)n2[C@@H]3C1", "Potency": "inconclusive: 29.1 µM [rising, single point]"},
      {"smiles": "CCCCCNC1=CC(=O)CC(c2ccccc2)C1", "note": "(stereo not given)", "Potency": "inconclusive: 29.1 µM [cytotoxic, partial curve, poor fit]"},
      {"smiles": "O=C(CCNS(=O)(=O)c1ccccc1F)N1CCN(S(=O)(=O)c2cccc(F)c2)CC1", "Potency": "inactive"},
      {"smiles": "CC(C)c1ccc(CC(C)C2C3=C(CCCC3=O)OC3=C2C(=O)CCC3)cc1", "note": "(stereo not given)", "Potency": "inconclusive: 18.4 µM [cytotoxic, single point]"},
      {"smiles": "Oc1ccccc1Nc1nc(NCc2ccccc2)c2ccccc2n1", "Potency": "active: 23.1 µM"},
      {"smiles": "Cc1ccc(-c2ocnc2C(=O)Nc2ccccc2C(=O)N2CCCC2)cc1", "Potency": "inconclusive: 29.1 µM [cytotoxic, single point]"},
      {"smiles": "CN(c1ccc(OCC(=O)N2CCN(c3ccc(F)cc3)CC2)cc1)S(=O)(=O)c1cccs1", "Potency": "inconclusive: 20.6 µM [cytotoxic, single point]"},
      {"smiles": "COc1cccc2c1OCC(C(=O)O)C2", "note": "(stereo not given)", "Potency": "inactive"},
      {"smiles": "Cc1ccc(/C=N/NC(=O)c2cc(-c3ccc(C)o3)[nH]n2)cc1", "Potency": "inconclusive: 29.1 µM [cytotoxic, single point]"},
      {"smiles": "COCc1cc(=O)[nH]c(Nc2nc3ccccc3o2)n1", "Potency": "active: 7.08 µM"},
      {"smiles": "O=C(CN(Cc1ccco1)C(=O)c1cc(=O)[nH]c2ccccc12)Nc1ccccc1Br", "Potency": "inactive"},
      {"smiles": "Nc1c(-c2ccc(Cl)cc2)cnn1C1CCS(=O)(=O)C1", "note": "(stereo not given)", "Potency": "inconclusive: 16.4 µM [cytotoxic, single point]"},
      {"smiles": "O=C(Cn1c(C(F)(F)F)nc2ccccc21)Nc1ccccc1C(=O)O", "Potency": "inconclusive: 29.1 µM [cytotoxic, single point]"},
      {"smiles": "Cc1nc2ncnn2c(N2CCN(c3cccc(C(F)(F)F)c3)CC2)c1C", "Potency": "active: 20.6 µM"},
      {"smiles": "CCOc1ccc(CCNc2ncnc3onc(C)c23)cc1OCC", "Potency": "active: 2.59 µM"},
      {"smiles": "O=C(Nc1ccccc1)Nc1nnc(-c2ccncc2)s1", "Potency": "active: 18.4 µM"},
      {"smiles": "O=C(Nc1cccc(S(=O)(=O)N2CCCC2)c1)c1cccc(S(=O)(=O)N2CCOCC2)c1", "Potency": "inactive"},
      {"smiles": "O=c1oc(Cl)c(Cl)c2ccccc12", "Potency": "inactive"},
      {"smiles": "O=C(Oc1c(CN2CCOCC2)cc(Cl)c2cccnc12)c1ccccc1Cl", "Potency": "inconclusive: 29.1 µM [cytotoxic, single point]"},
      {"smiles": "CCc1ccc(CCC(=O)Nc2ccccc2C(=O)O)o1", "Potency": "inconclusive: 23.1 µM [cytotoxic, single point]"}
    ]}
  ]
}
